# Measured values published in publication doi:10.1101/2023.03.18.533296.
# T1: GFP-VAMP721^Y57D (Arabidopsis thaliana) (UniProt Q9ZTW3)
# T1 sequence: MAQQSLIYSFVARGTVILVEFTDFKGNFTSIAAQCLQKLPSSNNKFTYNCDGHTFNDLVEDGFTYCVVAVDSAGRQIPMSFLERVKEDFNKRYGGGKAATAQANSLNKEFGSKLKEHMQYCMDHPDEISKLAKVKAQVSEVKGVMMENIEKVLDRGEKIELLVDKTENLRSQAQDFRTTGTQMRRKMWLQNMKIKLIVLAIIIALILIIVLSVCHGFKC
# B1: ATJ3 (protein, UniProt Q94AW8 1-420)
# chain: MFGRGPSKKSDNTKFYEILGVPKSASPEDLKKAYKKAAIKNHPDKGGDPEKFKELAQAYEVLSDPEKREIYDQYGEDALKEGMGGGGGGHDPFDIFSSFFGGGPFGGNTSRQRRQRRGEDVVHPLKVSLEDVYLGTMKKLSLSRNALCSKCNGKGSKSGASLKCGGCQGSGMKVSIRQLGPGMIQQMQHACNECKGTGETINDRDRCPQCKGDKVIPEKKVLEVNVEKGMQHSQKITFEGQADEAPDTVTGDIVFVLQQKEHPKFKRKGEDLFVEHTLSLTEALCGFQFVLTHLDGRSLLIKSNPGEVVKPDSYKAISDEGMPIYQRPFMKGKLYIHFTVEFPDSLSPDQTKALEAVLPKPSTAQLSDMEIDECEETTLHDVNIEDEMRRKAQAQREAYDDDDEDDDHPGGAQRVQCAQQ
# B2: RPN10 (26S proteasome non-ATPase regulatory subunit) (protein, UniProt P55034 1-386)
# chain: MVLEATMICIDNSEWMRNGDYSPSRLQAQTEAVNLLCGAKTQSNPENTVGILTMAGKGVRVLTTPTSDLGKILACMHGLDVGGEINLTAAIQIAQLALKHRQNKNQRQRIIVFAGSPIKYEKKALEIVGKRLKKNSVSLDIVNFGEDDDEEKPQKLEALLTAVNNNDGSHIVHVPSGANALSDVLLSTPVFTGDEGASGYVSAAAAAAAAGGDFDFGVDPNIDPELALALRVSMEEERARQEAAAKKAADEAGQKDKDGDTASASQETVARTTDKNAEPMDEDSALLDQAIAMSVGDVNMSEAADEDQDLALALQMSMSGEESSEATGAGNNLLGNQAFISSVLSSLPGVDPNDPAVKELLASLPDESKRTEEEESSSKKGEDEKK
# B3: RPT1A (26S proteasome regulatory subunit) (protein, UniProt Q9SSB5 1-426)
# chain: MVRDIEDEIRDEKNPRPLDEDDIALLKTYGLGPYSAPIKKVEKEIKDLAKKINDLCGIKESDTGLAPPSQWDLVSDKQMMQEEQPLQVARCTKIISPNTEDAKYVINVKQIAKFVVGLGDKVSPTDIEEGMRVGVDRNKYQIQIPLPPKIDPSVTMMTVEEKPDVTYNDVGGCKEQIEKMREVVELPMLHPEKFVKLGIDPPKGVLCYGPPGTGKTLLARAVANRTDACFIRVIGSELVQKYVGEGARMVRELFQMARSKKACIVFFDEVDAIGGARFDDGVGGDNEVQRTMLEIVNQLDGFDARGNIKVLMATNRPDTLDPALLRPGRLDRKVEFGLPDLESRTQIFKIHTRTMNCERDIRFELLARLCPNSTGADIRSVCTEAGMYAIRARRKTVTEKDFLDAVNKVIKGYQKFSATPKYMVYN
# B4: RPN6 (26S proteasome non-ATPase regulatory subunit) (protein, UniProt Q9LP45 1-419)
# chain: MVSYRATTETISLALEANSSEAITILYQVLEDPSSSPEAIRIKEQAITNLCDRLTEEKRGEDLRKLLTKLRPFFSLIPKAKTAKIVRGIIDAVAKIPGTTDLQITLCKEMVEWTRAEKRTFLRQRVEARLAALLMENKEYVEALALLSTLVKEVRRLDDKLLLVDIDLLESKLHFSLRNLPKAKAALTAARTAANAIYVPPAQQGTIDLQSGILHAEEKDYKTGYSYFFEAFESFNALGDPRAVFSLKYMLLCKIMVSQADDVAGIISSKAGLQYVGPDLDAMKAVADAHSKRSLKLFENALRDYKAQLEDDPIVHRHLSSLYDTLLEQNLCRLIEPFSRVEIAHIAELIGLPLDHVEKKLSQMILDKKFAGTLDQGAGCLIIFEDPKADAIYSATLETIANMGKVVDSLYVRSAKIMS
# B5: HSP90-5 (protein, UniProt Q9SIF2 61-780)
# chain: CDAAVAEKETTEEGSGEKFEYQAEVSRLLDLIVHSLYSHKEVFLRELVSNASDALDKLRFLSVTEPSLLGDGGDLEIRIKPDPDNGTITITDTGIGMTKEELIDCLGTIAQSGTSKFLKALKENKDLGADNGLIGQFGVGFYSAFLVAEKVVVSTKSPKSDKQYVWESVADSSSYLIREETDPDNILRRGTQITLYLREDDKYEFAESTRIKNLVKNYSQFVGFPIYTWQEKSRTIEVEEDEPVKEGEEGEPKKKKTTKTEKYWDWELANETKPLWMRNSKEVEKGEYNEFYKKAFNEFLDPLAHTHFTTEGEVEFRSILYIPGMGPLNNEDVTNPKTKNIRLYVKRVFISDDFDGELFPRYLSFVKGVVDSDDLPLNVSREILQESRIVRIMRKRLIRKTFDMIQEISESENKEDYKKFWENFGRFLKLGCIEDTGNHKRITPLLRFFSSKNEEELTSLDDYIENMGENQKAIYYLATDSLKSAKSAPFLEKLIQKDIEVLYLVEPIDEVAIQNLQTYKEKKFVDISKEDLELGDEDEVKDREAKQEFNLLCDWIKQQLGDKVAKVQVSNRLSSSPCVLVSGKFGWSANMERLMKAQALGDTSSLEFMRGRRILEINPDHPIIKDLNAACKNAPESTEATRVVDLLYDTAIISSGFTPDSPAELGNKIYEMMAMAVGGRWGRVEEEEESSTVNEGDDKSGETEVVEPSEVRAESDPWQD
# B6: BAG6 (protein, UniProt O82345)
# chain: MMPVYMDPSQPCQMRPQEYYYQGFGNNSQHMAMDAPPPCHGSCVHGNFPAYWPPCYPPQVPYHQCCMNRSAFHPPHASYAPSCYVHPPFPVGYQPWFDVEKDVPGKHHCGKCSSQMCDLKKDRGVVIEEHEPEIEKGEAVLPVRSTNCPYPIIWIPHENARNQEYRSSLGLGKHNQPPAEVRAPDNMTIQKSFPESWRGCFPFDESSMKSLVQNQDSKKAQNGKTVEAPFDISKFKSLLQGQDMKEAQIQKNKEELGQLTYPTSWVPSRRKRDDVEASESSNEDRKKMQNGKTVEYPFDISMIKSLIQGQDVKEAQNQKNKEEPGQVPYPIFWIPSYGKRKDVEASESKESSNEGRNLESCPSDLHRNEGQITQAKGKEGNFECNVLSDAEEKSSVINIPVANHLQEPRNIPVKLSENHLPKPTEPTKRIAKNEPVKSTKKEQSSSSSEASKLPPVCLRVDPLPKERNGGSKSVSHPKRMEKSKETKIAAPLSSKKAESRTVPEACNVKCEDANAEMKMAEGSLNALRTEKGSVESNSNLQEESNGEIIKPCEAKENREQPAKKSFTEEEAARIIQSMYRGYDVRRWEPIKKLKEIATVREQMGDVKKRIEALEASTDQHIEEKEIVVNGELVMNLLLKLDAVEGLHPSIREFRKALATELSSIQDKLDSLKNSCASAEKEAVKEQVEIKSQPSDSPVNLEHSQLTEENKMVSDTNLEKVLRLSPEEHPMSVLNRTDEKQAESAAETEEGYGLFETLATDSKQATENAAAASSTTIPEKIGEVETVVPGNPPSADGNGMTVTNVEENKAMVVESLEEPINELPQMVEETETNSIRDPENASEVSEAETNSSENENRKGEDDIVLHSEKNVELSELPVGVIDEETQPLSQDPSSSYTREGNMTAMDPKTASQEETEVDHSPNNSKGIGQQTSEPQDEKEQSPETEVIVKEQPLETEVILNEQAPEPEITEPGISKETKKLMEENQRFKETMETLVKAGREQLEVISKLTSRVKSLEKKLSHKKKTQIRRRASKPMSVSPTDAVL
# B7: ATJ2 (protein, UniProt P42825 1-419)
# chain: MFGRGPSRKSDNTKFYEILGVPKTAAPEDLKKAYKKAAIKNHPDKGGDPEKFKELAQAYEVLSDPEKREIYDQYGEDALKEGMGGGGGGHDPFDIFSSFFGSGGHPFGSHSRGRRQRRGEDVVHPLKVSLEDVYLGTTKKLSLSRKALCSKCNGKGSKSGASMKCGGCQGSGMKISIRQFGPGMMQQVQHACNDCKGTGETINDRDRCPQCKGEKVVSEKKVLEVNVEKGMQHNQKITFSGQADEAPDTVTGDIVFVIQQKEHPKFKRKGEDLFVEHTISLTEALCGFQFVLTHLDKRQLLIKSKPGEVVKPDSYKAISDEGMPIYQRPFMKGKLYIHFTVEFPESLSPDQTKAIEAVLPKPTKAAISDMEIDDCEETTLHDVNIEDEMKRKAQAQREAYDDDEEDHPGGAQRVQCAQQ
# B8: HSP70-9 (protein, UniProt Q8GUM2 47-682)
# chain: SRPVGNDVIGIDLGTTNSCVSVMEGKTARVIENAEGSRTTPSVVAMNQKGELLVGTPAKRQAVTNPTNTIFGSKRLIGRRFDDPQTQKEMKMVPYKIVKAPNGDAWVEANGQKFSPSQIGANVLTKMKETAEAYLGKSINKAVVTVPAYFNDAQRQATKDAGKIAGLDVQRIINEPTAAALSYGMNNKEGVIAVFDLGGGTFDVSILEISSGVFEVKATNGDTFLGGEDFDNTLLEYLVNEFKRSDNIDLTKDNLALQRLREAAEKAKIELSSTTQTEINLPFITADASGAKHLNITLTRSKFEGLVGKLIERTRSPCQNCLKDAGVTIKEVDEVLLVGGMTRVPKVQEIVSEIFGKSPCKGVNPDEAVAMGAAIQGGILRGDVKDLLLLDVVPLSLGIETLGAVFTKLIPRNTTIPTKKSQVFSTAADNQMQVGIKVLQGEREMAADNKVLGEFDLVGIPPAPRGMPQIEVTFDIDANGITTVSAKDKATGKEQNITIRSSGGLSDDEINRMVKEAELNAQKDQEKKQLIDLRNSADTTIYSVEKSLSEYREKIPAEIASEIETAVSDLRTAMAGEDVEDIKAKVEAANKAVSKIGEHMSKGSGSSGSDGSSGEGTSGTEQTPEAEFEEASGSRK
# B9: ARF-like GTPase ARL8b (protein, UniProt Q93Y31 1-184)
# chain: MGLWDALLNWLRSLFFKQEMELSLIGLQNAGKTSLVNVVATGGYSEDMIPTVGFNMRKVTKGSVTIKLWDLGGQPRFRSMWERYCRSVSAIVYVVDAADPDNLSVSKSELHDLLSKTSLNGIPLLVLGNKIDKPGALSKEALTDEMGLKSLTDREVCCFMISCKNSTNIDQVIDWLVKHSKSSN
# B10: CCT8 (protein, UniProt Q94K05 1-549)
# chain: MVGMSMQPYGIQSMLKEGYRHLSGLDEAVIKNIEACKELSTITRTSLGPNGMNKMVINHLDKLFVTNDAATIVNELEIQHPAAKLLVLAAKAQQEEIGDGANLTISFAGELLQNAEELIRMGLHPSEIISGYTKAVSKAVEILEQLVETGSETMDVRNKDEVISRMRAAVASKQFGQEEIICSLVTDACIQVCPKNPTNFNVDNVRVSKLLGGGLHNSCIVRGMVLKSDAVGSIKRMEKAKVAVFAGGVDTTATETKGTVLIHSAEQLENYAKTEEAKVEELIKAVAESGAKVIVSGGSIGEMALHFCERYKIMVLKISSKFELRRFCRTAGAVAHLKLSRPSPEDLGYVDSISVEEIGGVTVTIARNEEGGNSISTVVLRGSTDSILDDLERAVDDGVNTYKAMCRDSRIVPGAAATEIELAQRLKEYANAEIGLDKYAITKYAESFEFVPKTLADNAGLNAMEIIAALYTGHGSGNTKLGIDLEEGACKDVSETKVWDLFATKLFALKYASDAACTVLRVDQIIMAKPAGGPRRDAAQAAGAGAEED
# B11: RPN7 (26S proteasome non-ATPase regulatory subunit) (protein, UniProt Q93Y35 1-387)
# chain: MDGGAEGSQQPHLILANKLFLLTHPDVPDIEKVQLKSEVLDFIRSHGMAPLYETLIASSVLDLDQSLLESMRAANEEELKKLDEKIADAEENLGESEVREAHLAKALYFIRISDKEKALEQLKLTEGKTVAVGQKMDVVFYTLQLAFFYMDFDLVSKSIDKAKKLFEEGGDWERKNRLKVYEGLYCMSTRNFKKAASLFLDSISTFTTYEIFPYETFIFYTVLTSIITLDRVSLKQKVVDAPEILTVLGKIPFLSEFLNSLYECQYKAFFSAFAGMAVQIKYDRYLYPHFRFYMREVRTVVYSQFLESYKSVTVEAMAKAFGVSVDFIDQELSRFIAAGKLHCKIDKVAGVLETNRPDAKNALYQATIKQGDFLLNRIQKLSRVIDL
# Target: T1, GFP-VAMP721^Y57D (Arabidopsis thaliana)
# Experiment: affinity purification with mass spectrometry
row,binding,Binder
1,binds,B1
2,binds,B2
3,binds,B3
4,binds,B4
5,binds,B5
6,binds,B6
7,binds,B7
8,binds,B8
9,binds,B9
10,binds,B10
11,binds,B11

# Results are given in words; binding and its absence hold for the method and conditions named. Binding seen in cells or lysates may run through a third protein. Here binding means that the protein was enriched with, or labelled near, the bait; the list need not be complete. Sequences can lack the tags named with a protein.
